Library screen at single concentrations

Amino acid sequences for entries named in this document (tags omitted). Residues count along the entry.
UniProt A4I591, 1-473: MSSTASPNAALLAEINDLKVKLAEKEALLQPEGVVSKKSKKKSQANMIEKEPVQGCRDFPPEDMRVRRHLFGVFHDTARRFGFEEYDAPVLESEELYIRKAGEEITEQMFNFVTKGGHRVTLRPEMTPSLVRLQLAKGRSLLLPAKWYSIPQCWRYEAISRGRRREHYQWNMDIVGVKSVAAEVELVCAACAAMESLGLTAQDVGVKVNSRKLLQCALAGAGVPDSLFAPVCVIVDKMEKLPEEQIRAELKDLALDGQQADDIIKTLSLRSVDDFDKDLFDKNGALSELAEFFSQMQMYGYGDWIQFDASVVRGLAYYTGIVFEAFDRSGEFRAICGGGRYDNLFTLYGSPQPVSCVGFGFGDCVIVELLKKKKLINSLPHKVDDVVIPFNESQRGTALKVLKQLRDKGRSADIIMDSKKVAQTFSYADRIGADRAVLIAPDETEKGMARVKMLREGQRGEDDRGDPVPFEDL

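Enzyme assay of histidyl-tRNA synthetase; the read-out is not stated. Target: Histidine-tRNA ligase, Leishmania infantum (UniProt A4I591). Compounds at 30 µM. Direction is inferred from retests: higher values go with stronger inhibition. The assay is labelled LdHisRS but filed under L. infantum. About 69,000 compounds were tested under these conditions; 0.6% (about 410) showed 50% or more at least once.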

Each number is a percent effect as filed. The record does not define 0% and 100%; most values in the screen are far below 50% and negative numbers occur (in some assays of this library far below -100). Compounds were drawn at random from those tested, without regard to their results.

| SMILES | Percent Effect |
|---|---|
| `CC(NC(=O)Cn1cccn1)c1ccc2c(c1)OCCCO2` (stereo not given) | 30.14% |
| `Cc1nc(-c2ccccc2)sc1CSCCS(C)(=O)=O` | 7.895% |
| `Cc1ccc(CC(NC(=O)Cn2cnnn2)c2ccccn2)cc1` (stereo not given) | 17.74% |
| `Cc1ccc(C)c(S(=O)(=O)NC(=O)c2cccc3c2OCCO3)c1` | 2.469% |
| `CCc1nccn1C1CCCN(C(=O)c2cnc3onc(C)c3c2)C1` (stereo not given) | 11.57% |
| `CN(Cc1cccc(F)c1)C(=O)CN1CCOC(Cn2cncn2)C1` (stereo not given) | 10.17% |
| `COc1ccc(N2CCN(C(=O)CCc3n[nH]c(C)n3)CC2=O)cc1` | 1.639% |
| `COc1ccccc1C(=O)NC(C)CC(=O)O` (stereo not given) | 13.51% |
| `OCC(O)CSCc1cn(-c2ccc(F)c(Cl)c2)nn1` (stereo not given) | 12.28% |
| `COc1ccccc1CN(Cc1cccnc1)Cc1c[nH]c(C)n1` | 12.9% |
| `c1coc(CN2CCC3(CCOCC3COCC3CC3)CC2)c1` (stereo not given) | 21.36% |
| `CN1CCOC(C)(C(=O)Nc2nc(C(C)(C)C)cs2)C1` (stereo not given) | -1.439% |
| `CCOc1cc(CNC(=O)NCc2nc(C)c(C)s2)ccn1` | 28.57% |
| `CCN(CC)S(=O)(=O)c1ccc2c(c1)N(Cc1ccncc1)C(=O)CS2` | 6.849% |
| `O=C(c1ccc2cc[nH]c2c1)N1CCC(Nc2cccnn2)CC1` | 3.478% |
| `Cc1nc(-c2c(C)noc2C)cc(C2CCN(S(=O)(=O)N(C)C)CC2)n1` | 5.755% |
| `Cc1nccn1-c1cc(CNC(=O)CCS(=O)(=O)C2CCCC2)ccn1` | 9.649% |
| `Cc1cncc(C(=O)N2CCCC(O)(CO)C2)c1` (stereo not given) | 10.42% |
| `CCS(=O)(=O)c1ccc2oc([C@H]3CCN(CC4CCCCC4)C3)nc2c1` | 21.62% |
| `Cc1oncc1C(=O)N[C@@H]1CN(C2CCC2)C[C@@H]2CCCO[C@@H]21` | 11.82% |
| `CCN(CC)S(=O)(=O)CCNc1ncnc2cc(F)c(F)cc12` | 15.52% |
| `COCCOc1ccc(NC(=O)C2CC(=O)N(C(C)C)C2)cn1` (stereo not given) | 16.07% |
| `Cc1c[nH]c(C(=O)N2CCCC2c2ccc(C(=O)N3CCSCC3)s2)n1` (stereo not given) | 10.75% |
| `CCc1ncncc1C(=O)N1CCN(Cc2ccco2)CC1` | -4.545% |
| `CCC1CN(CC(=O)N2CCCC2)CCN1CCOC` (stereo not given) | 15.79% |
| `C[C@@H]1CN(C2CCCCC2)CC[C@@]1(O)C1CCOCC1` | 10.87% |
| `O=C(c1cnc(Cc2c(Cl)cccc2Cl)nc1O)N1CCNCC1` | 16% |
| `CN(C)C(=O)[C@H]1C[C@@H]2CCN(Cc3ccncc3)C[C@H]2O1` | 3.636% |
| `CN1CCCC1CNC(=O)CCCOc1cccc(Br)c1` (stereo not given) | 8.929% |
| `CC(C)N1CCc2nnc(COc3cncnc3)n2CC1` | 12.73% |
| `COc1ccc(C2=C(C)C(N3CCc4ccccc43)=NS2(=O)=O)cc1` | 12.62% |
| `CN(C)S(=O)(=O)N1CCCC1CC(=O)c1cccs1` (stereo not given) | 3.846% |
| `CC(C)N(C)Cc1ncn2c1CN(S(=O)(=O)c1cccs1)CCC2` | -2.857% |
| `CCOC(C)c1noc(CN2CCN(c3nnc(C)s3)CC2)n1` (stereo not given) | 9.091% |
| `CCc1cc(O)nc(C2CCCN(Cc3ccncc3)C2)n1` (stereo not given) | 21.74% |
| `Cc1ccc(-c2cc(CNC(=O)N3CCCN(C)CC3)on2)cc1` | 14.55% |
| `COc1ccc(-n2cc(CNC(=O)c3ccccn3)nn2)cc1` | 18.75% |
| `Cc1cnc(Nc2nccnc2C2CCN(C)CC2)s1` | 8.029% |
| `CSCc1cccc(S(=O)(=O)N2CCC(C)CC2)c1` | -83.5% |
| `CCOc1cc(=O)n2c(c1C(=O)OCc1ccc(C)cc1)CCCC2` | 19.57% |
| `CC(=O)c1ccc(CNC(=O)c2cc(C)nn2C)nc1C` | 11.71% |
| `O=C(NCCNc1cnccn1)N1CC=C(c2ccccc2)CC1` | 19.44% |
| `Cn1cc(Br)cc(NC(=O)Cc2cccs2)c1=O` | 34.04% |
| `NC(=O)C1CCCN(Cc2ccc(C(=O)Nc3cnns3)cc2)C1` (stereo not given) | 8.235% |
| `O=C(COc1ccc2cccnc2c1)N1CCN[C@H]2CS(=O)(=O)C[C@H]21` | -70.49% |
| `COCCN(Cc1ccoc1)C(=O)CSc1ccc(F)cc1` | 8.696% |
| `CCN1CCO[C@@H]2CN(S(=O)(=O)c3cccs3)CC[C@@H]2C1` | 7.547% |
| `CCOC(=O)N1[C@@H](c2ccco2)[C@@H](CO)C[C@]12CCCCNC2=O` | 10.2% |
| `O=C(Nc1cccc(Cl)c1)c1nn(C2CCS(=O)(=O)C2)c2c1CCCC2` (stereo not given) | 17.14% |
| `CN(C)C(=O)NCC(=O)N(C)Cc1cc(-c2ccccc2)no1` | 9.677% |
| `CC(=O)N1CCC(c2nc3ccc(NC4CCC4)cn3n2)CC1` | 13.86% |
| `O=C(NCCCF)Nc1ccc2nc(N3CCOCC3)oc2c1` | 19.35% |
| `CCCn1cc(Cl)c(C(=O)N2C[C@@H](O)[C@H](Oc3ccccc3)C2)n1` | 5.755% |
| `CN(C)S(=O)(=O)NCc1cccnc1Oc1ccc(F)c(F)c1` | 3.226% |
| `CC(C)NC1CCCc2nc(-c3ccccc3)ncc21` (stereo not given) | 15.71% |
| `Cc1nc(CN2CCO[C@H]3[C@@H](OCc4cccnc4)CC[C@@H]32)cs1` | 6.195% |
| `CC(C)Oc1ccc(CSc2nnc(CN3CCCC3=O)o2)cc1` | 18.45% |
| `O=S(=O)(c1ccccc1F)N1CCCCC1c1cc[nH]n1` (stereo not given) | 1.449% |

5 of the entries, repeated:

SMILES	Percent Effect
CC(C)N1CCc2nnc(COc3cncnc3)n2CC1	12.73%
CCN(CC)S(=O)(=O)CCNc1ncnc2cc(F)c(F)cc12	15.52%
Cc1nc(-c2ccccc2)sc1CSCCS(C)(=O)=O	7.895%
Cc1nc(-c2c(C)noc2C)cc(C2CCN(S(=O)(=O)N(C)C)CC2)n1	5.755%
O=C(Nc1cccc(Cl)c1)c1nn(C2CCS(=O)(=O)C2)c2c1CCCC2 (stereo not given)	17.14%

From ChEMBL document CHEMBL3988442, “University of Dundee, Small-Polar-MMV Screening Library” (2021).